This is one part of the list. Residues, ends and D or L forms follow the SMILES beside them. *: point of attachment. Cbz = O=C(OCc1ccccc1)*
Assays:
Assay in all cases: log2 fold change, soluble protein after heating vs DMSO (PISA); higher = thermal stabilisation; K562 cells, 10 uM, 30 min; active = over 0.2 and 3.5 SD of the protein, either way, in both replicates (recomputed)
IRAK-1-4 Inhibitor I = compound: C1COCCN1CCN2C3=CC=CC=C3N=C2NC(=O)C4=CC(=CC=C4)[N+](=O)[O-] [IRAK-1-4 Inhibitor I]
Method in brief: (§1)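 K562 cells at 2×10^6 cells/mL were treated for 30 min with 10 μM compound, and aliquots were heated for 3 min over 48°C-58°C before pooling. Extraction used PBS with 0.5% NP-40 at 4°C, and soluble protein was the supernatant after 21,000xg for 90 min, measured by TMTpro 16plex LC-MS/MS with channel sums equalised. Thermal stability values, relative to control samples and from duplicates, are log2 fold changes.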

Sequences of proteins named here, by UniProt entry; tags and fusion partners are left off. A change or cut given only in a name is not applied to a line headed by its entry.
UniProt Q9H813: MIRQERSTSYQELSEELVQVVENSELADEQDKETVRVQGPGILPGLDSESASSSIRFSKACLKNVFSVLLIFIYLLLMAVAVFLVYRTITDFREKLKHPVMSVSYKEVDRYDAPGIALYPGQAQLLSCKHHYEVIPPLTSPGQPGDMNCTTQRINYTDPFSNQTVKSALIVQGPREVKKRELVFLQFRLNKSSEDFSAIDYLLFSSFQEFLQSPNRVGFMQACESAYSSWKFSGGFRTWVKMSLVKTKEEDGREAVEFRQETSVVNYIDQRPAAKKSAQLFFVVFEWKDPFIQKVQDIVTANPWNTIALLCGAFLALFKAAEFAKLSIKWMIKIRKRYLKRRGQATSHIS
UniProt O75340: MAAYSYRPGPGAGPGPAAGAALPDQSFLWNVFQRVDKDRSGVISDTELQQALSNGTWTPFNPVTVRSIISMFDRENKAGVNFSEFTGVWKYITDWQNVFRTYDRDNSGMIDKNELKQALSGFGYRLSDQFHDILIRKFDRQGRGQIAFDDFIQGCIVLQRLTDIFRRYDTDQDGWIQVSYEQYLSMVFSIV
UniProt O96011, whole entry, looked up, stated change not applied: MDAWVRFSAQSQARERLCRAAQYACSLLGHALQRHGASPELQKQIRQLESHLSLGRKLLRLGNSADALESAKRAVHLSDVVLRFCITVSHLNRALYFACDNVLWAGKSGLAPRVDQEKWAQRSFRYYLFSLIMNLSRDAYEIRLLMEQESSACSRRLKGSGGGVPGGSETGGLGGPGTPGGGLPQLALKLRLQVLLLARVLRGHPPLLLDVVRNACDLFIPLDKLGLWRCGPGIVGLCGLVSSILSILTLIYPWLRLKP
UniProt O43924: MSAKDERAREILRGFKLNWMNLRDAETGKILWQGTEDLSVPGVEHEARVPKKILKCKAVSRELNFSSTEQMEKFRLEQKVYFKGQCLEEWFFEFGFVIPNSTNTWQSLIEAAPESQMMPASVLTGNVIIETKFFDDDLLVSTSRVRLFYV
UniProt P27815: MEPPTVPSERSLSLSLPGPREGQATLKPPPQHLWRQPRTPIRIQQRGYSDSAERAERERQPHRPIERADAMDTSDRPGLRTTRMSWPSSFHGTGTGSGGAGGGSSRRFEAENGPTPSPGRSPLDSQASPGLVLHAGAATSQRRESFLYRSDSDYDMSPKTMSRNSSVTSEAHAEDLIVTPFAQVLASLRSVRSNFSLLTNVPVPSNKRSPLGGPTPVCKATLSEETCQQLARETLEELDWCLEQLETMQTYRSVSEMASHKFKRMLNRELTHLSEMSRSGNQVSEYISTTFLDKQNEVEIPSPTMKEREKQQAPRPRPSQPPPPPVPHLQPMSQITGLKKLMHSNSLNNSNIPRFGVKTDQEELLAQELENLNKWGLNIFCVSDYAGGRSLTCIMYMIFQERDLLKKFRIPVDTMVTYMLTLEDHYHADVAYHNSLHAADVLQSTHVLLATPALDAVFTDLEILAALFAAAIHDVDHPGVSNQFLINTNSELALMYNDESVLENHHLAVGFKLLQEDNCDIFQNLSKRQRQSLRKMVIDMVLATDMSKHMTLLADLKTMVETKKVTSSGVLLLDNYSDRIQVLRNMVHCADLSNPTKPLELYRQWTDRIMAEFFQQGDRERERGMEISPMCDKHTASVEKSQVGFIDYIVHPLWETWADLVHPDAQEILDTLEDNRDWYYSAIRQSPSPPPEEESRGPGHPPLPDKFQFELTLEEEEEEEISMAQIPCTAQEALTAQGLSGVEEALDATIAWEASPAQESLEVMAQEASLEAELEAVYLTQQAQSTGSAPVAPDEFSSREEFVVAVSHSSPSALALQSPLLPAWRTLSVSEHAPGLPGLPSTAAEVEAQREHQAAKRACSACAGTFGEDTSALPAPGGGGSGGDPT
UniProt Q96MG8: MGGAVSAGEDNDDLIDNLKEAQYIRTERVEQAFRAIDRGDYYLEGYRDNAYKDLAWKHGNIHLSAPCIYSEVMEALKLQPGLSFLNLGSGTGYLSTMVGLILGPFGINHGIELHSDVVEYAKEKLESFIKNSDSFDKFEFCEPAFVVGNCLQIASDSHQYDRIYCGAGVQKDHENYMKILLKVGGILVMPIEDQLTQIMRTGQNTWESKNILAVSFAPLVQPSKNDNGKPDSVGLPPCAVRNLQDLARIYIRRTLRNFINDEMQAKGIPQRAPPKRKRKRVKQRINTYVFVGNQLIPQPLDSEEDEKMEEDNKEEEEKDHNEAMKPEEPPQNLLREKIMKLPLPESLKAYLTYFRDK
UniProt P11498: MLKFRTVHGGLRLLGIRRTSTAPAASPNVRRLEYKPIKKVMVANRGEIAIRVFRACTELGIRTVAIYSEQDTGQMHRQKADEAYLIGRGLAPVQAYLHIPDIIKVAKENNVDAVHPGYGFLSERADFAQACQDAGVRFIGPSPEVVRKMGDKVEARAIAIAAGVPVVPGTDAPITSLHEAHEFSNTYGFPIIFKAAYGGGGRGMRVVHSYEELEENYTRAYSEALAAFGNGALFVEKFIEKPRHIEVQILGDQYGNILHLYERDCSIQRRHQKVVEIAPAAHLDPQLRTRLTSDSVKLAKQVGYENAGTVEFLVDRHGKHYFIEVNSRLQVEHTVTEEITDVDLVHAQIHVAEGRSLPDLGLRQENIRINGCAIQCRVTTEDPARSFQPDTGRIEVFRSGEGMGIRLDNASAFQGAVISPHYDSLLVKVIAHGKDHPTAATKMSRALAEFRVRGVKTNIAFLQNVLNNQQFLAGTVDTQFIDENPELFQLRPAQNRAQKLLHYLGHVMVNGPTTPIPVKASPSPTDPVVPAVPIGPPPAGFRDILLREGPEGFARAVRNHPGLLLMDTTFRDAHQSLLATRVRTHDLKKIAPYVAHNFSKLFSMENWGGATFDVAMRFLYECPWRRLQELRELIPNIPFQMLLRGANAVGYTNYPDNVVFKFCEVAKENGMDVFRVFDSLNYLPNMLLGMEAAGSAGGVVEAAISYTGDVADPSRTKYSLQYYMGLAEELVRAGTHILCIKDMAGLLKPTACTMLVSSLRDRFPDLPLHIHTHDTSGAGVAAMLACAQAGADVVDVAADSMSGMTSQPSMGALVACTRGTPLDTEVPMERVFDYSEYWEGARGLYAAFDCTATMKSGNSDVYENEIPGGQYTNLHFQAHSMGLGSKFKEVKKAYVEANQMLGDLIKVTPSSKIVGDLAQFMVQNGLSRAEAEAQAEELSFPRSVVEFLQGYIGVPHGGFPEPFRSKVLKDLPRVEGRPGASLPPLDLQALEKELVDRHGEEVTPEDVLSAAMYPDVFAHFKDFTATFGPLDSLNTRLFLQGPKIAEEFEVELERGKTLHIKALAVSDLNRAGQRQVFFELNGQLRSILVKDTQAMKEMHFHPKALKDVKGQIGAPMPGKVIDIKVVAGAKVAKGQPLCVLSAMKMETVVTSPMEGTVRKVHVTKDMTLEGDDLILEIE

ibrutinib = compound: C=CC(=O)N1CCC[C@@H](n2nc(-c3ccc(Oc4ccccc4)cc3)c3c(N)ncnc32)C1 [ibrutinib]
Method in brief: as §1

[1] = compound: CC(=O)c1cnc2ccc(-c3cc(Cl)c(O)c(Cl)c3)nc2c1N[C@H]1CC[C@H](CN(C)C)CC1
Method in brief: as §1

[2] = compound: CC(C)(O)CC(=O)NCCn1ccc2ncnc(Nc3ccc(Oc4cccc(C(F)(F)F)c4)c(Cl)c3)c21
Method in brief: as §1

pinometostat = compound: CC(C)N(C[C@H]1O[C@@H](n2cnc3c(N)ncnc32)[C@H](O)[C@@H]1O)[C@H]1C[C@@H](CCc2nc3cc(C(C)(C)C)ccc3[nH]2)C1 [pinometostat]
Method in brief: as §1

[3] = compound: CC1=C(C(CC(=O)N1)C2=CC=C(C=C2)C(F)(F)F)C(=O)NC3=C(C=C4C(=C3)C=NN4)F
Method in brief: as §1

[4] = compound: CC1=C(C2=C(C=C1)C(=O)C3=CC=CC=C3N2CCCN)C
Method in brief: as §1

[5] = compound: CC1=C(C=C(C=C1)NC(=O)C2=CC(=CC=C2)C(C)(C)C#N)NC3=CC4=C(C=C3)N=CN(C4=O)C
Method in brief: as §1

[6] = compound: CC1=CC=C(C=C1)SC2=C3C=C(SC3=CN=C2)C(=O)N
Method in brief: as §1

[7] = compound: CC1=NC(=CC=C1)C2=C(N=C(N2)C(C)(C)C)C3=CC4=NC=CN=C4C=C3
Method in brief: as §1

Nexturastat A = compound: CCCCN(Cc1ccc(C(=O)NO)cc1)C(=O)Nc1ccccc1 [Nexturastat A]
Method in brief: as §1

vemurafenib = compound: CCCS(=O)(=O)Nc1ccc(F)c(C(=O)c2c[nH]c3ncc(-c4ccc(Cl)cc4)cc23)c1F [vemurafenib]
Method in brief: as §1

[8] = compound: CCCS(=O)(=O)Nc1ccc(F)c(C(=O)c2c[nH]c3ncc(Cl)cc23)c1F
Method in brief: as §1

[9] = compound: CCCc1cc(C)[nH]c(=O)c1CNC(=O)c1cc(-c2ccnc(N3CCN(C)CC3)c2)cc2c1cnn2C(C)C
Method in brief: as §1

barasertib = compound: CCN(CCCOc1ccc2c(Nc3cc(CC(=O)Nc4cccc(F)c4)[nH]n3)ncnc2c1)CCOP(=O)(O)O [barasertib]
Method in brief: as §1

ralimetinib = compound: CC(C)(C)Cn1c(N)nc2ccc(-c3[nH]c(C(C)(C)C)nc3-c3ccc(F)cc3)nc21 [ralimetinib]
Method in brief: as §1

[10] = compound: CC(C)C1=C2N=C(C=C(N2N=C1)NCC3=CC=CC=C3)NCCCCCCN
Method in brief: as §1

[11] = compound: CC(C)C[C@@H](C=O)NC(=O)[C@H](CC(C)C)NC(=O)[C@H](CC(C)C)NC(=O)OCc1ccccc1
Method in brief: as §1

[12] = compound: CC1=C(C=C(C=C1)NC(=O)C2=CC(=CC=C2)N(C)C)NC(=O)C3=CC=C(C=C3)O
Method in brief: as §1

givinostat = compound: CCN(CC)Cc1ccc2cc(COC(=O)Nc3ccc(C(=O)NO)cc3)ccc2c1 [givinostat]
Method in brief: as §1

Measured: log2 fold change

PACC1 (UniProt Q9H813)
inactive: IRAK-1-4 Inhibitor I 0.053 | ibrutinib -0.003 | [1] -0.033 | [2] -0.133 | pinometostat 0.01 | [3] 0.148 | [4] 0.066 | [5] -0.145 | [6] 0.026 | [7] -0.016 | Nexturastat A 0.002 | vemurafenib 0.049 | [8] -0.018 | [9] -0.055 | barasertib 0.046

PDCD6 (UniProt O75340)
inactive: IRAK-1-4 Inhibitor I 0.021 | ibrutinib -0.05 | [1] -0.029 | ralimetinib -0.048 | [2] -0.097 | [10] -0.156 | [11] 0.018 | pinometostat 0.005 | [4] -0.034 | [5] 0.013 | [12] 0.039 | [6] -0.001 | [7] 0.032 | Nexturastat A -0.032 | vemurafenib -0.025 | [8] 0.023 | [9] -0.089 | givinostat -0.017 | barasertib 0.004

PEX11B (UniProt O96011)
inactive: IRAK-1-4 Inhibitor I 0.025 | ibrutinib 0.04 | [1] 0.032 | ralimetinib 0.005 | [2] 0.008 | [10] 0.075 | [11] -0.058 | pinometostat -0.031 | [4] 0.012 | [5] 0.06 | [12] -0.039 | [6] 0.321 | [7] -0.008 | Nexturastat A -0.076 | vemurafenib 0.08 | [8] 0 | [9] 0.029 | givinostat 0.008 | barasertib -0.002

PDE6D (UniProt O43924)
inactive: IRAK-1-4 Inhibitor I 0.037 | ibrutinib 0.086 | [1] -0.051 | [2] 0.003 | [10] 0.164 | pinometostat 0.017 | [4] -0.01 | [5] -0.081 | [7] -0.117 | Nexturastat A 0.15 | vemurafenib -0.022 | [9] -0.028 | givinostat -0.052 | barasertib 0.002

PDE4A (UniProt P27815)
inactive: IRAK-1-4 Inhibitor I 0 | ibrutinib 0.249 | [1] 0.077 | ralimetinib -0.056 | [2] 0.106 | [10] 0.029 | [11] 0.04 | pinometostat 0.019 | [4] -0.077 | [12] -0.028 | [6] -0.047 | [7] 0.062 | Nexturastat A 0.061 | vemurafenib 0.006 | [8] 0.024 | givinostat 0.015 | barasertib 0.049

PCMTD1 (UniProt Q96MG8)
inactive: IRAK-1-4 Inhibitor I 0.122 | ibrutinib -0.065 | ralimetinib 0.271 | [2] -0.12 | [11] 0.012 | pinometostat 0.196 | [3] -0.026 | [12] 0.002 | [7] -0.098 | Nexturastat A -0.113 | barasertib -0.228

PC (UniProt P11498)
inactive: IRAK-1-4 Inhibitor I -0.024 | ibrutinib 0.04 | [1] -0.151 | ralimetinib -0.02 | [2] -0.038 | [10] 0.183 | [11] -0.037 | pinometostat -0.016 | [4] 0.15 | [5] 0.07 | [12] -0.103 | [6] 0.038 | [7] 0.012 | Nexturastat A -0.07 | vemurafenib 0 | [8] 0.032 | [9] 0.039 | givinostat 0.022 | barasertib 0.009

Source: the supplement of paper PMC10849652
